Values of other authors, collected in patent publication US20030199492A1, “Combination therapy” (priority 1997, published 2003).
At least one compound was matched to its structure with a doubt left.

Test system: calcium channel

CCOC(=O)C1=C(COCCN)NC(C)=C(C(=O)OC)[C@@H]1c1ccccc1Cl [S(−) isomer, amlodipine]
calcium channel blocking activity: substantially confined to the S(−) isomer
